In publication PMC3335845 (PLoS ONE, 2012):

Experiment: general procedure: Fmoc solid-phase peptide synthesis; rink amide MBHA resin
Details: whole synthesis, analytical HPLC

## LLP2A-HYNIC
  final HPLC purity: >95%
